Biological target: p29 bCW505 ON-switch CAR part 2 with human ER alpha LBD w Y537F G521R
Test: cell-based or functional assay

B1: p26 bCW502 myc aCD19 ON-switch part 1 with 3x CoRNR peptide and 4-1BB (receptor)
chain: EQKLISEEDLDIQMTQTTSSLSASLGDRVTISCRASQDISKYLNWYQQKPDGTVKLLIYHTSRLHSGVPSRFSGSGSGTDYSLTISNLEQEDIATYFCQQGNTLPYTFGGGTKLEITGGGGSGGGGSGGGGSEVKLQESGPGLVAPSQSLSVTCTVSGVSLPDYGVSWIRQPPRKGLEWLGVIWGSETTYYNSALKSRLTIIKDNSKSQVFLKMNSLQTDDTAIYYCAKHYYYGGSYAMDYWGQGTSVTVSSTTTPAPRPPTPAPTIASQPLSLRPEACRPAAGGAVHTRGLDFACDIYIWAPLAGTCGVLLLSLVITLYCSLKRGRKKLLYIFKQPFMRPVQTTQEEDGCSCRFPEEEEGGCELSRGSGSGSTSDAFQLRQLILRGLQDDGGGSGGGSDAFQLRQLILRGLQDDGGGSGGGSDAFQLRQLILRGLQDDGS
- CD69 upregulation in Jurkat cells (flow cytometry, 24 hours of co-culture with K562 target cells); the EC50 is that of the dimerizer 4-hydroxytamoxifen: ~100 nM

From US20170306303A1 (University of California, published 2017)
